Assay [1] concerns the target ILT7 on the ILT7+ NFAT-GFP reporter mouse cell line (CT550) (human) (UniProt P59901). In words: proximity ligation; ILT7+ or ILT7- NFAT-GFP reporter cells incubated with BST2-Fc-containing supernatant (approximately 300 ug/ml), cross-linked with DTSSP, fixed; Duolink PLA with mouse anti-ILT7 mAb and rabbit polyclonal anti-BST2.
Assay [2] has as its target full length ILT7 expressed on HEK293T cells (human) (UniProt P59901). In words: flow cytometry on cells; control or ILT7-transfected HEK293T cells incubated with BST2-Fc-containing supernatant (approximately 300 ug/ml) 30 min at 4 C, then cross-linked with DTSSP 30 min at room temperature; surface BST2-Fc stained with rabbit anti-BST2 serum and anti-human IgG. For orientation: In flow cytometry, cells or beads pass a laser one at a time.

Protein sequences, listed by entry. Tags and fused reporters are not part of them. Residues count along the entry.
UniProt P59901, residues 24-499: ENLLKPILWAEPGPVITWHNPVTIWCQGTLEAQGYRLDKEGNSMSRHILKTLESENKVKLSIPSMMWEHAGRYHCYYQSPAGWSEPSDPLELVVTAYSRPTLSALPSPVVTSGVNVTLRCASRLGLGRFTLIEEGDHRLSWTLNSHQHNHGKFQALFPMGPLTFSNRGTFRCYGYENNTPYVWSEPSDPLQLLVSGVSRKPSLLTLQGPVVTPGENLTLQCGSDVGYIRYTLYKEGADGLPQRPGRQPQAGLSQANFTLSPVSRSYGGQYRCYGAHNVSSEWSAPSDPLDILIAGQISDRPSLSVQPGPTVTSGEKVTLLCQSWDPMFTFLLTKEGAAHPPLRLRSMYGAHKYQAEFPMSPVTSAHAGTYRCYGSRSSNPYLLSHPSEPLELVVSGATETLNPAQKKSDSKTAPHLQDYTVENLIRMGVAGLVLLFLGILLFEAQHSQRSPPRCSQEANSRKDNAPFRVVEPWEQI
UniProt Q10589, residues 49-161: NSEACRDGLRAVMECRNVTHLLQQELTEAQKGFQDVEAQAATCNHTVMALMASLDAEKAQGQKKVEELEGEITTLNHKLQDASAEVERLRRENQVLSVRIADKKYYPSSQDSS

Results are given in words; binding and its absence hold for the method and conditions named. For some assays here: In cells and extracts the contact can be indirect. Some results given as binding are weak or reduced against the parent protein; the word gives no strength.

With “Fc-tagged ectodomain of BST2 (from UniProt Q10589 49-161) (Fc fusion)”, the binding result in assay [1] and in assay [2] was “binds” throughout.

These data come from PMC4501562, “Vpu Exploits the Cross-Talk between BST2 and the ILT7 Receptor to Suppress Anti-HIV-1 Responses by Plasmacytoid Dendritic Cells” (PLoS Pathogens, 2015).
